Assay results taken from the supplement of paper PMC3682954.
“And” between values parts separate entries of the source, which are not always exact repeats. Identical values can stand only once. Counter-ions that a name gives are not always drawn. ± gives the standard deviation of the averaged measurements. Some of the results follow. Repeats are few or missing, and single values can be far off.

System: RAW 264.7
Assay: HMGB1-induced TNF-alpha production relative to HMGB1-stimulated control; higher = more TNF-alpha secretion (less inhibition)
Settings: stimulus: HMGB1 5 ug/ml, 18 h
[1] = compound concentration: 1 ug/ml

CN(C)CCOc1ccc(/C(=C(/CCCl)c2ccccc2)c2ccccc2)cc1
HMGB1-induced TNF-alpha production (compound concentration: 3 uM): 95% and 90.1%

CN(C)CCOc1ccc(/C(=C(/CCCl)c2ccccc2)c2ccccc2)cc1 [Toremifene]
HMGB1-induced TNF-alpha production (compound concentration: 3 uM): 93.3 ± 14%

CO[C@@]12[C@H](COC(N)=O)C3=C(C(=O)C(C)=C(N)C3=O)N1C[C@@H]1N[C@@H]12 [Mitomycin C]
HMGB1-induced TNF-alpha production (compound concentration: 3 uM): 123%

CO[C@@]12[C@H](COC(N)=O)C3=C(C(=O)C(C)=C(N)C3=O)N1C[C@@H]1N[C@@H]12
HMGB1-induced TNF-alpha production (compound concentration: 3 uM): 99.4 ± 17%

CC(C(=O)O)c1ccc(N2Cc3ccccc3C2=O)cc1 (stereo not drawn) [Indoprofen]
HMGB1-induced TNF-alpha production (compound concentration: 3 uM): 104%

CC(C(=O)O)c1ccc(N2Cc3ccccc3C2=O)cc1 (stereo not drawn)
HMGB1-induced TNF-alpha production (compound concentration: 3 uM): 90.8%

CC1=Nc2ccc(Cl)cc2S(=O)(=O)N1
HMGB1-induced TNF-alpha production (compound concentration: 3 uM): 96.2 ± 2%

CC1=Nc2ccc(Cl)cc2S(=O)(=O)N1 [Diazoxide]
HMGB1-induced TNF-alpha production (compound concentration: 3 uM): 92 ± 5.2%

O=c1c(-c2ccc(O)cc2)coc2c([C@@H]3O[C@H](CO)[C@@H](O)[C@H](O)[C@H]3O)c(O)ccc12 [Puerarin]
HMGB1-induced TNF-alpha production [1]: 70%

CCn1nc(C(=O)O)c(=O)c2cc3c(cc21)OCO3 [Cinoxacin]
HMGB1-induced TNF-alpha production [1]: 59.7%
HMGB1-induced TNF-alpha production (compound concentration: 3 uM): 89.6 ± 4.2%

CCn1nc(C(=O)O)c(=O)c2cc3c(cc21)OCO3
HMGB1-induced TNF-alpha production (compound concentration: 3 uM): 86%

Cc1cc(/C=C/c2ccc3cc(N(C)C)ccc3[n+]2C)c(C)n1-c1ccccc1
HMGB1-induced TNF-alpha production (compound concentration: 3 uM): 110%

Cc1cc(/C=C/c2ccc3cc(N(C)C)ccc3[n+]2C)c(C)n1-c1ccccc1 [Pyrvinium pamoate]
HMGB1-induced TNF-alpha production (compound concentration: 3 uM): 78.3%

COCCOC(=O)C1=C(C)NC(C)=C(C(=O)OC/C=C/c2ccccc2)C1c1cccc([N+](=O)[O-])c1 (stereo not drawn) [Cilnidipine]
HMGB1-induced TNF-alpha production (compound concentration: 3 uM): 90.5 ± 7.7%

CCCCNc1ccc(C(=O)OCCOCCOCCOCCOCCOCCOCCOCCOCCOC)cc1 [Benzonatate]
HMGB1-induced TNF-alpha production (compound concentration: 3 uM): 74.5%

O=C(O)/C=C/c1ccc(Cn2ccnc2)cc1
HMGB1-induced TNF-alpha production (compound concentration: 3 uM): 103% and 83.5%

O=C(O)/C=C/c1ccc(Cn2ccnc2)cc1 [Ozagrel hydrochloride]
HMGB1-induced TNF-alpha production (compound concentration: 3 uM): 89.7%

O=C(O)/C=C/c1ccc(Cn2ccnc2)cc1 [Ozagrel]
HMGB1-induced TNF-alpha production (compound concentration: 3 uM): 140%

COC(=O)CC[C@@H](C)[C@H]1CC[C@H]2[C@@H]3CC[C@@H]4C[C@H](O)CC[C@]4(C)[C@H]3C[C@H](O)[C@]12C [Deoxycholic acid methyl ester]
HMGB1-induced TNF-alpha production [1]: 75.8%

CCCc1nc(C)c2c(=O)nc(-c3cc(S(=O)(=O)N4CCN(CC)CC4)ccc3OCC)[nH]n12
HMGB1-induced TNF-alpha production (compound concentration: 3 uM): 107%

CCCc1nc(C)c2c(=O)nc(-c3cc(S(=O)(=O)N4CCN(CC)CC4)ccc3OCC)[nH]n12 [Vardenafil]
HMGB1-induced TNF-alpha production (compound concentration: 3 uM): 95.3 ± 17%

C[C@H]1CC2C3CCC4=CC(=O)C=C[C@]4(C)[C@@]3(F)[C@@H](O)C[C@]2(C)[C@@]1(O)C(=O)COP(=O)(O)O (stereo partly drawn)
HMGB1-induced TNF-alpha production (compound concentration: 3 uM): 45%
